Results reported in patent publication US8835643B2, “Molecules, compositions, and methods for light absorption” (Empire Technology Development LLC, priority 2012, dated 2014).
Some results were stated once for a whole list of compounds, not compound by compound.

Test: Photoisomerization tests under UV, visible and natural light
Assay type: physicochemical
Method: Photoisomerization tests were carried out on compounds PyB (Formula XIV) and iQB (Formula XV), which were synthesized and characterized by MS, IR, ^1H NMR spectra.
The tests included observing the UVA-absorbing condition before and after light exposure and noting the molar absorption coefficient. The test also included determining the photo isomerization conditions under illumination of UVA, visible light and daylight. The compounds were irradiated with a 400 W high-pressure Hg lamp (LCE-9, Zhengzhou, China). A bandpass filter (λT=275˜400 nm) was used for UV light and a bandpass filter (λT>400 nm) was used for visible light. The light distance was 20 cm. For natural light irradiation, samples were irradiated with fluorescent lamps (21 W×2, luminous intensity about 500 lx), and the light distance was 120 cm. The ultraviolet spectra of CHCl3 were measured using an UV-Vis spectrophotometer (U3010, Hitachi, Japan). All experiments were carried out at room temperature unless otherwise stated. […]

Row | SMILES | fraction in the cis form (after 6 minutes' irradiation of UVA) | fraction in the cis form (after 8 minutes' irradiation of UVA)
1 | CC(C)CCCC(C)C1CCC2C3CC=C4CC(OC(=O)c5ccc(N=Nc6ccc(OCCCC[n+]7ccccc7)cc6)cc5)CCC4(C)C3CCC12C.[Br-] (centres unmarked) [PyB] | more than 99% | –
2 | CC(C)CCCC(C)C1CCC2C3CC=C4CC(OC(=O)c5ccc(N=Nc6ccc(OCCCC[n+]7ccc8ccccc8c7)cc6)cc5)CCC4(C)C3CCC12C.[Br-] (centres unmarked) [iQB] | – | more than 99%
